According to the supplement of paper PMC12819154, “High-throughput peptide-centric local stability assay extends protein–ligand identification to membrane proteins, tissues and bacteria” (Nature Structural & Molecular Biology, 2025):
Some of the results follow. Most entries show no effect beyond the scatter of the controls.

By UniProt entry, the sequences of proteins in these tests, tags left out. Where a name states a change or a piece, a line headed by the entry shows the natural chain unless it says otherwise.
UniProt Q8IYU2: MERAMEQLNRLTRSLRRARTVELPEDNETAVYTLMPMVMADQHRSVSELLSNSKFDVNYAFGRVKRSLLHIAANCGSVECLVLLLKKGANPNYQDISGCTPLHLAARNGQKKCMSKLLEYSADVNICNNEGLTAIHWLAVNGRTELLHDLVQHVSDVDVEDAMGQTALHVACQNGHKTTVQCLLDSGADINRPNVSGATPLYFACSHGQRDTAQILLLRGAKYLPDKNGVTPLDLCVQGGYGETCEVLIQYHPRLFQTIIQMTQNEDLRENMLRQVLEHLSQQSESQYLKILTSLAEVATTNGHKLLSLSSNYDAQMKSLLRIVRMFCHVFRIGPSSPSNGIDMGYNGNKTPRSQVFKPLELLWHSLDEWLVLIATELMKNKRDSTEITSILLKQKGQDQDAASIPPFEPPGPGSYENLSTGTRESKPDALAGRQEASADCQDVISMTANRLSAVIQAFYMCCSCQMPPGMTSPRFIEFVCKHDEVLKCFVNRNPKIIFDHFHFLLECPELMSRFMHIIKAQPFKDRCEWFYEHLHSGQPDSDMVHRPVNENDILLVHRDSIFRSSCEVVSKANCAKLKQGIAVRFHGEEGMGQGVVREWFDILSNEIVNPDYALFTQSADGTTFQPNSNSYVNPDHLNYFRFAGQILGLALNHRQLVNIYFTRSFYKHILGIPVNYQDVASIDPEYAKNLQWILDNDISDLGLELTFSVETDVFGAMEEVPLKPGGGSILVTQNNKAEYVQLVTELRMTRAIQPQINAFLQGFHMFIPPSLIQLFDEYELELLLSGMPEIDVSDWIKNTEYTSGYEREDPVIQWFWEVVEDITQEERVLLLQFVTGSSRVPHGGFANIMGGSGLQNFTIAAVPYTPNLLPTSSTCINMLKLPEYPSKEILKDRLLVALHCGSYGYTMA
UniProt Q86X83, whole entry: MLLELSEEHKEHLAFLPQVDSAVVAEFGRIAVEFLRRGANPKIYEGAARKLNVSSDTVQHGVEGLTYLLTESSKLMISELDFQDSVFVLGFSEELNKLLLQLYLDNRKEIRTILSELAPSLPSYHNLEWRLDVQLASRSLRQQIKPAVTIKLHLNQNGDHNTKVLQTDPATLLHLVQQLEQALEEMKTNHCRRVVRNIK
UniProt Q8IYF3: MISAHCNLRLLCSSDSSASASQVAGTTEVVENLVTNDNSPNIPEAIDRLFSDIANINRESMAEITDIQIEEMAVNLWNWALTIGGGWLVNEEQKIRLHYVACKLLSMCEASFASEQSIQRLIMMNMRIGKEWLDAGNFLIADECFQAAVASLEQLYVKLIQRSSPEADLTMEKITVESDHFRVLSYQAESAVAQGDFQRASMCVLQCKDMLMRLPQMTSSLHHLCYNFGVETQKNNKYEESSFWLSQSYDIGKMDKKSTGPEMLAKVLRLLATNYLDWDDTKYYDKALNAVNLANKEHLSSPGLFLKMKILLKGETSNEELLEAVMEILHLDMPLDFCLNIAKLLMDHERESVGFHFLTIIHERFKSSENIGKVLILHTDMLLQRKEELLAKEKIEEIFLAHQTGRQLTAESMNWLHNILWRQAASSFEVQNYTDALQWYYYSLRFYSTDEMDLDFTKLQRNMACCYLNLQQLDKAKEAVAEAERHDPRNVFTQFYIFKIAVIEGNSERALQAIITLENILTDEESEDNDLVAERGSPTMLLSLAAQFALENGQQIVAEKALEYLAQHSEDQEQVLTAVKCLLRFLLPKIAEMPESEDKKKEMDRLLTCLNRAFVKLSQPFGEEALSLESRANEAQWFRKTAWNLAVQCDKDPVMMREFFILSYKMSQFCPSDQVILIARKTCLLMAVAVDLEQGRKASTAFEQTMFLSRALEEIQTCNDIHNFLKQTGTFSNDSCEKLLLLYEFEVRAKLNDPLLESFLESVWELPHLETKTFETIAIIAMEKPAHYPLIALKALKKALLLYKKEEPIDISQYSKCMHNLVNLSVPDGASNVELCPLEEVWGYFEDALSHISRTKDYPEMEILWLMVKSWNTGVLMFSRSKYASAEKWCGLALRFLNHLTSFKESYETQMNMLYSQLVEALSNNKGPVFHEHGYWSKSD
UniProt Q8IUR0, whole entry: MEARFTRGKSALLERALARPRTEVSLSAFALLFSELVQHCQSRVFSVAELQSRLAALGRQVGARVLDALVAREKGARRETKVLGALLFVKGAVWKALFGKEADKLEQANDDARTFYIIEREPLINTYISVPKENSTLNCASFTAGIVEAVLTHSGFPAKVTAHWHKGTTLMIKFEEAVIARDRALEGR
UniProt Q86Y82: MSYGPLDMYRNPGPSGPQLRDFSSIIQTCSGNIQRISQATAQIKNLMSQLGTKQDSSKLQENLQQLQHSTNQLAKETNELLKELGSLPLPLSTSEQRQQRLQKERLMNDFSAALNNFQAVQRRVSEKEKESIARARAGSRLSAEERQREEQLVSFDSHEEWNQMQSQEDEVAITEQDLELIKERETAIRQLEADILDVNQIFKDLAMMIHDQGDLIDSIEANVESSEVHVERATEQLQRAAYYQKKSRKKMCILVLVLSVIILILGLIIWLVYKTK
UniProt Q8IYA2: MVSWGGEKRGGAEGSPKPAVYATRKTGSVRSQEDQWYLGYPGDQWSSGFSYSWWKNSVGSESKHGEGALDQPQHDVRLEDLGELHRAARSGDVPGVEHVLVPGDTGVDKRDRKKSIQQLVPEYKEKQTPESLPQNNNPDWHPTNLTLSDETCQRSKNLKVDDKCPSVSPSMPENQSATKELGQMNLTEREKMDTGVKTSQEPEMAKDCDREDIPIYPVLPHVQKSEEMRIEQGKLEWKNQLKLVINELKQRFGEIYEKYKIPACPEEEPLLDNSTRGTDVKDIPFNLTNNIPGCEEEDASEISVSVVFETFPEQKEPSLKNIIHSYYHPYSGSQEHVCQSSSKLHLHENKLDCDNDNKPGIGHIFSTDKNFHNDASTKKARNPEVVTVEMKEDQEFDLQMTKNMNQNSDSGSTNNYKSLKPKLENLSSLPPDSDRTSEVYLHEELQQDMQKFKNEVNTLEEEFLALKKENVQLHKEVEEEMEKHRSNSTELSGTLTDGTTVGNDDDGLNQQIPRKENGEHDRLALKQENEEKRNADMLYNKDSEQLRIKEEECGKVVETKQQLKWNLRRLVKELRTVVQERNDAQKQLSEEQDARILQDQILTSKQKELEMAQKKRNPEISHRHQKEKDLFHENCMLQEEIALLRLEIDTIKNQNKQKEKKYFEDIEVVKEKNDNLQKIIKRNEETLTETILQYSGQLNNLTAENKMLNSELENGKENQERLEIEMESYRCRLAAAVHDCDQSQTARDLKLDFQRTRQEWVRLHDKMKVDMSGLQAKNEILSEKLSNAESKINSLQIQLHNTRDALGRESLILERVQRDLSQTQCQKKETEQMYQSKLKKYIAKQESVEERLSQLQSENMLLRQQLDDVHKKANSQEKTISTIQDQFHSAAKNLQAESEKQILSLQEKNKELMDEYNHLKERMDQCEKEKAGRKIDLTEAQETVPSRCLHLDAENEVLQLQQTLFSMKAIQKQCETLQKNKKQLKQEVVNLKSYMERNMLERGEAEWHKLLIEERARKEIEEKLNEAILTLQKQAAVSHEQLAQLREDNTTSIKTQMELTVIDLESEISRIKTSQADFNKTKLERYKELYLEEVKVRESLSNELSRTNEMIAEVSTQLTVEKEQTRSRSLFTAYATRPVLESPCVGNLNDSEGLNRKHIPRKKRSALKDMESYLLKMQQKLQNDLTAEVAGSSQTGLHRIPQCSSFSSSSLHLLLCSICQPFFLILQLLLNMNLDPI
UniProt Q8IY47: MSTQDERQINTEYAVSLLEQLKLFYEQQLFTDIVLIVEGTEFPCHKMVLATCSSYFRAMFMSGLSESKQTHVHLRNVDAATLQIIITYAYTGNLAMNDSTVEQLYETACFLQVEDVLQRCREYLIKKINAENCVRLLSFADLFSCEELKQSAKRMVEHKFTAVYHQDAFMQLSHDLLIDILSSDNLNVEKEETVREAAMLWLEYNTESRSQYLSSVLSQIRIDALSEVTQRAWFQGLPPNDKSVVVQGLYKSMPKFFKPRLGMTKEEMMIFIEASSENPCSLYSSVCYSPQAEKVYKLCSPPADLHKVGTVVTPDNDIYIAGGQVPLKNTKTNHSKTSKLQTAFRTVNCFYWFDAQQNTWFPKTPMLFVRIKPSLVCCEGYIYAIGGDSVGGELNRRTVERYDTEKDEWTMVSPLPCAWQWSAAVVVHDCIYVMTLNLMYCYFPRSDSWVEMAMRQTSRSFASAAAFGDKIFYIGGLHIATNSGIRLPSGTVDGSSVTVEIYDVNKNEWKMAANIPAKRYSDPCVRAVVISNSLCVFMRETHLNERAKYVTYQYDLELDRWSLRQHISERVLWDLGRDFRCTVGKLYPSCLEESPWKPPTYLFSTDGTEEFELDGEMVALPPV
UniProt Q86WX3: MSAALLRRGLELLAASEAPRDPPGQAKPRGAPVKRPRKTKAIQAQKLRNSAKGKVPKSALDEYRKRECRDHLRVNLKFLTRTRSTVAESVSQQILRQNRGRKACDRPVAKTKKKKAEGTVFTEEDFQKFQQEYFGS
UniProt Q86WB0: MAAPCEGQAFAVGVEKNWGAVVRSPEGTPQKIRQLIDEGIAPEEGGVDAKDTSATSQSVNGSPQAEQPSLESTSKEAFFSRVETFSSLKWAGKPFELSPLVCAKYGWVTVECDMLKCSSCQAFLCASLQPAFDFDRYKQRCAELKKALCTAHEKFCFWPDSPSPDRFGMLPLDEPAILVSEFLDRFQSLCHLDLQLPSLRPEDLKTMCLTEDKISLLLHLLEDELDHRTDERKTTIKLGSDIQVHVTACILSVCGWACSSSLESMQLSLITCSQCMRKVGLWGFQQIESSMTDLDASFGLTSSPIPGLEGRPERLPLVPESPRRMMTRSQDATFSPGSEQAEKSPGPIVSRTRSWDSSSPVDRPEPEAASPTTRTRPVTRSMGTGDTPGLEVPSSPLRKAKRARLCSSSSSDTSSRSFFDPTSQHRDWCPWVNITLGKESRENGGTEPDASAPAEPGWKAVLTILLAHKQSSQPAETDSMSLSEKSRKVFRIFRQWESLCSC
UniProt Q8N140: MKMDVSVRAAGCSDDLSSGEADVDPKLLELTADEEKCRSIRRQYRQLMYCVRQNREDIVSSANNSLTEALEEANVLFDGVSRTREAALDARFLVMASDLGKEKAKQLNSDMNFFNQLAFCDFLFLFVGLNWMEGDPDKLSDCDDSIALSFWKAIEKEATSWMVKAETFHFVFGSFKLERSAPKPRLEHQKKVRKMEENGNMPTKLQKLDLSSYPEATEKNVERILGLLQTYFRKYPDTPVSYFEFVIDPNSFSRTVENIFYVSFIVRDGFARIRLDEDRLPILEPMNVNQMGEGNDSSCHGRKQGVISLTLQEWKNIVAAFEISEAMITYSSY
UniProt Q8N1B4: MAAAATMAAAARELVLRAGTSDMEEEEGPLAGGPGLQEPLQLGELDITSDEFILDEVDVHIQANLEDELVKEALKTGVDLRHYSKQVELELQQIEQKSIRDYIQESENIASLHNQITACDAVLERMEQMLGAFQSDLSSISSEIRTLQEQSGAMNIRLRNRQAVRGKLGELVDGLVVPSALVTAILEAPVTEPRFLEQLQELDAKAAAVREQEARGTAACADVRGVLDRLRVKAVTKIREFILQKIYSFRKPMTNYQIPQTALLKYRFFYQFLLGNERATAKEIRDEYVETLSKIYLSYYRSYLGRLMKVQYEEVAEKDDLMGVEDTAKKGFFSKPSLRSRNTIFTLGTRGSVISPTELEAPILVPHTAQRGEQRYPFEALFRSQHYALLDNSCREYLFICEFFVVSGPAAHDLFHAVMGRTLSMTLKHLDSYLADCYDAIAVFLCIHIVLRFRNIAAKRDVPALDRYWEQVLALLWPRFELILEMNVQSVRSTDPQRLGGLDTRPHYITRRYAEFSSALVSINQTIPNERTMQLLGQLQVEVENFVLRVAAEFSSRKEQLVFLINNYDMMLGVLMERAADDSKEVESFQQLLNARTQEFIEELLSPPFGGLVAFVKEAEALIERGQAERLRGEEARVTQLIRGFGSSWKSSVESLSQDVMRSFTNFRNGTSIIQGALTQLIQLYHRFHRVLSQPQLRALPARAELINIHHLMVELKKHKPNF
UniProt Q86WP2: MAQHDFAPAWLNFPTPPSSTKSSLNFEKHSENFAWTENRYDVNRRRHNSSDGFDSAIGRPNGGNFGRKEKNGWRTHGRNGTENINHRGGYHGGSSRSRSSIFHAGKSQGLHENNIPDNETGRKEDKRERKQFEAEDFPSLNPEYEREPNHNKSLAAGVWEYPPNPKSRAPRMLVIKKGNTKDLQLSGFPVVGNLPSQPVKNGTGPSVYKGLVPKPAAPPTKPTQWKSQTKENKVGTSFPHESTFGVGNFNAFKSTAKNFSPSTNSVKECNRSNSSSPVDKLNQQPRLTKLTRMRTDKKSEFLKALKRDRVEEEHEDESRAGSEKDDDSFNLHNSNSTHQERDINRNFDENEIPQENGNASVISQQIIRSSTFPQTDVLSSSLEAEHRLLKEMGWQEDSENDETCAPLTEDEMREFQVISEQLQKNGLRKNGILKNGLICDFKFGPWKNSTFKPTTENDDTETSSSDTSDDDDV

The targets below were run with CN[C@@H]1C[C@H]2O[C@@](C)([C@@H]1OC)n1c3ccccc3c3c4c(c5c6ccccc6n2c5c31)C(=O)NC4 [staurosporine] (assay: log2 fold change of tryptic peptide abundance, ligand vs vehicle (limited proteolysis) (log2 ratio); higher = more trypsin-susceptible (destabilized)). Settings: ligand concentration: 20 uM; sample: K562 cleared lysate; digestion: 4 min, 22 C (HT-PELSA RT4min, Orbitrap Astral).

| Target | log2 fold change |
| --- | --- |
| PDIK1L (peptide sequence: DLKPDNILISQTR, peptide start residue: 164) (UniProt Q8N165) | -0.267 |
| DZIP3 (peptide sequence: VTTDYGETEKER, peptide start residue: 739) (UniProt Q86Y13) | -0.419 |
| AMN1 (peptide sequence: SCDISDAALLHLSNCR, peptide start residue: 70) (UniProt Q8IY45) | 0.424 |
| HACE1 (peptide sequence: DSTEITSILLK, peptide start residue: 384) (UniProt Q8IYU2) | -0.0888 |
| COMMD2 (peptide sequence: LHLNQNGDHNTK, peptide start residue: 152) (UniProt Q86X83) | -0.257 |
| UniProt Q86W50 (peptide sequence: IIHDSLQLK, peptide start residue: 231) | 0.356 |
| UniProt Q8IYF3 (peptide sequence: VLILHTDMLLQR, peptide start residue: 374) | 0.334 |
| TRAPPC5 (peptide sequence: VTAHWHK, peptide start residue: 160) (UniProt Q8IUR0) | 0.26 |
| STX12 (peptide sequence: LQENLQQLQHSTNQLAK, peptide start residue: 59) (UniProt Q86Y82) | 0.149 |
| ASPM (peptide sequence: VFQHNELKK, peptide start residue: 2596) (UniProt Q8IZT6) | 1.2 |
| CHERP (peptide sequence: LPPPMPPSER, peptide start residue: 676) (UniProt Q8IWX8) | 0.184 |
| UniProt Q8IYA2 (peptide sequence: ENVQLHKEVEEEMEK, peptide start residue: 519) | 0.896 |
| WDR75 (peptide sequence: LGATIEHISVSPAGDLFCTSHSDNK, peptide start residue: 289) (UniProt Q8IWA0) | 0.236 |
| FCHSD1 (peptide sequence: SDHGIFHSR, peptide start residue: 175) (UniProt Q86WN1) | 0.359 |
| KBTBD2 (peptide sequence: KINAENCVR, peptide start residue: 127) (UniProt Q8IY47) | 0.475 |
| PROSER1 (peptide sequence: GPSHSGNPSHGTLGLSGTLGR, peptide start residue: 621) (UniProt Q86XN7) | 0.397 |
| RPS19BP1 (peptide sequence: GLELLAASEAPRDPPGQAKPR, peptide start residue: 9) (UniProt Q86WX3) | 0.136 |
| NIT1 (peptide sequence: ECGLWLSLGGFHER, peptide start residue: 119) (UniProt Q86X76) | 0.417 |
| CRLF3 (peptide sequence: DVLKQHFNDLK, peptide start residue: 53) (UniProt Q8IUI8) | -0.329 |
| ZC3HC1 (peptide sequence: DWCPWVNITLGKESR, peptide start residue: 427) (UniProt Q86WB0) | -0.418 |
| UniProt Q8N140 (peptide sequence: ILGLLQTYFR, peptide start residue: 270) | -0.0251 |
| NAV2 (peptide sequence: QNLEETMSSLR, peptide start residue: 270) (UniProt Q8IVL1) | 0.189 |
| UniProt Q8IX90 (peptide sequence: TDVKDDLSDPPVASSCISEKSPR, peptide start residue: 132) | 0.478 |
| MIB1 (peptide sequence: KLFETQESGDLNEELVK, peptide start residue: 421) (UniProt Q86YT6) | -0.371 |
| UniProt Q8IW41 (peptide sequence: AVVAGIQQAHAEQLANMR, peptide start residue: 324) | 0.231 |
| VPS52 (peptide sequence: GFFSKPSLR, peptide start residue: 331) (UniProt Q8N1B4) | 0.332 |
| GPBP1 (peptide sequence: GLVPKPAAPPTKPTQWK, peptide start residue: 210) (UniProt Q86WP2) | 0.236 |
| LCORL (peptide sequence: NGSIGPSIVCK, peptide start residue: 184) (UniProt Q8N3X6) | 0.227 |

Two neighbouring records out of the list so far, quoted:

| Target | log2 fold change |
| --- | --- |
| UniProt Q86W50 (peptide sequence: IIHDSLQLK, peptide start residue: 231) | 0.356 |
| UniProt Q8IYF3 (peptide sequence: VLILHTDMLLQR, peptide start residue: 374) | 0.334 |
